For this experiment, the target named is full-length DE-cadherin (DEfull) (Drosophila) (UniProt Q24298). The experiment in a line: mixed cell aggregation assay; two populations of transfected S2 cells, marked with TagBFP or mKate2, mixed and rotated.

Chains of the proteins cited; added tags and fusions are not shown. Lines headed by an entry give the natural chain unless they say otherwise; changes in a name come on top.
UniProt Q24298: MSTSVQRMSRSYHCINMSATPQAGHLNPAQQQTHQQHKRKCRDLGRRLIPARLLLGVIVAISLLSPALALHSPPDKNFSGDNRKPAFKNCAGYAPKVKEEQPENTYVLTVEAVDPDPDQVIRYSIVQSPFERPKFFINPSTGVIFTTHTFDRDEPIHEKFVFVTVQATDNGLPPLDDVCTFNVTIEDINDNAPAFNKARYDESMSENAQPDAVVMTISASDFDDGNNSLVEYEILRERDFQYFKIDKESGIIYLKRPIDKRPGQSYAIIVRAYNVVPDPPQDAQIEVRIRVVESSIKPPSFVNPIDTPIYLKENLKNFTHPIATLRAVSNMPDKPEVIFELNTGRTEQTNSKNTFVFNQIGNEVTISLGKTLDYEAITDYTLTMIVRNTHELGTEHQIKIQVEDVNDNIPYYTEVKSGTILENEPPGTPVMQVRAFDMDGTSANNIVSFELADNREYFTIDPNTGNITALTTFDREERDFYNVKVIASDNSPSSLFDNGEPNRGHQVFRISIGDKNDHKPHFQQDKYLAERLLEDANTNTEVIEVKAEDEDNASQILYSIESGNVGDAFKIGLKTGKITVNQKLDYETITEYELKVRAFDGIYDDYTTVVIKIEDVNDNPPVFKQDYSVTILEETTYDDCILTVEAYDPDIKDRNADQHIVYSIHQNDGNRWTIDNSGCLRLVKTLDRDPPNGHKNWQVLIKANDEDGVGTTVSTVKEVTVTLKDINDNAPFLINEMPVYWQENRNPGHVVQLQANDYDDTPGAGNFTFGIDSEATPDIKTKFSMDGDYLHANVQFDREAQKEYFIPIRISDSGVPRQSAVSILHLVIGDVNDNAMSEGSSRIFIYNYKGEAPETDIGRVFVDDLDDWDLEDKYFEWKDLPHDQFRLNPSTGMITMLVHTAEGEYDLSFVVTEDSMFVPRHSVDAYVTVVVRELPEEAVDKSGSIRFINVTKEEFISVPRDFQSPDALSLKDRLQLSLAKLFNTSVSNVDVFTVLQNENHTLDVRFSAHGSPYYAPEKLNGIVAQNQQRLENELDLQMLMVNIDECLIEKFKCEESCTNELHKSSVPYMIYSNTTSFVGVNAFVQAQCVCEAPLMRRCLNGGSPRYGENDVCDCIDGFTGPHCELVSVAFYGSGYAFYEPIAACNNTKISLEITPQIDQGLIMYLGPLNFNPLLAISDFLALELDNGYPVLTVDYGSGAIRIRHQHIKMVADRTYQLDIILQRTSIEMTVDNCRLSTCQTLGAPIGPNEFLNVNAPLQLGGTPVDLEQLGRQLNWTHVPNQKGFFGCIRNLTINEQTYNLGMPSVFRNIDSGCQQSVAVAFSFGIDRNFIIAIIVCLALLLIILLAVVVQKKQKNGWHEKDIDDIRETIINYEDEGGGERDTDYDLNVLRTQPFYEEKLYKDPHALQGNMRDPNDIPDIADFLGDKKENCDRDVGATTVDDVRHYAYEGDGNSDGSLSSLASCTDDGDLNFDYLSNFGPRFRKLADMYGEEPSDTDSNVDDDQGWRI
UniProt O15943: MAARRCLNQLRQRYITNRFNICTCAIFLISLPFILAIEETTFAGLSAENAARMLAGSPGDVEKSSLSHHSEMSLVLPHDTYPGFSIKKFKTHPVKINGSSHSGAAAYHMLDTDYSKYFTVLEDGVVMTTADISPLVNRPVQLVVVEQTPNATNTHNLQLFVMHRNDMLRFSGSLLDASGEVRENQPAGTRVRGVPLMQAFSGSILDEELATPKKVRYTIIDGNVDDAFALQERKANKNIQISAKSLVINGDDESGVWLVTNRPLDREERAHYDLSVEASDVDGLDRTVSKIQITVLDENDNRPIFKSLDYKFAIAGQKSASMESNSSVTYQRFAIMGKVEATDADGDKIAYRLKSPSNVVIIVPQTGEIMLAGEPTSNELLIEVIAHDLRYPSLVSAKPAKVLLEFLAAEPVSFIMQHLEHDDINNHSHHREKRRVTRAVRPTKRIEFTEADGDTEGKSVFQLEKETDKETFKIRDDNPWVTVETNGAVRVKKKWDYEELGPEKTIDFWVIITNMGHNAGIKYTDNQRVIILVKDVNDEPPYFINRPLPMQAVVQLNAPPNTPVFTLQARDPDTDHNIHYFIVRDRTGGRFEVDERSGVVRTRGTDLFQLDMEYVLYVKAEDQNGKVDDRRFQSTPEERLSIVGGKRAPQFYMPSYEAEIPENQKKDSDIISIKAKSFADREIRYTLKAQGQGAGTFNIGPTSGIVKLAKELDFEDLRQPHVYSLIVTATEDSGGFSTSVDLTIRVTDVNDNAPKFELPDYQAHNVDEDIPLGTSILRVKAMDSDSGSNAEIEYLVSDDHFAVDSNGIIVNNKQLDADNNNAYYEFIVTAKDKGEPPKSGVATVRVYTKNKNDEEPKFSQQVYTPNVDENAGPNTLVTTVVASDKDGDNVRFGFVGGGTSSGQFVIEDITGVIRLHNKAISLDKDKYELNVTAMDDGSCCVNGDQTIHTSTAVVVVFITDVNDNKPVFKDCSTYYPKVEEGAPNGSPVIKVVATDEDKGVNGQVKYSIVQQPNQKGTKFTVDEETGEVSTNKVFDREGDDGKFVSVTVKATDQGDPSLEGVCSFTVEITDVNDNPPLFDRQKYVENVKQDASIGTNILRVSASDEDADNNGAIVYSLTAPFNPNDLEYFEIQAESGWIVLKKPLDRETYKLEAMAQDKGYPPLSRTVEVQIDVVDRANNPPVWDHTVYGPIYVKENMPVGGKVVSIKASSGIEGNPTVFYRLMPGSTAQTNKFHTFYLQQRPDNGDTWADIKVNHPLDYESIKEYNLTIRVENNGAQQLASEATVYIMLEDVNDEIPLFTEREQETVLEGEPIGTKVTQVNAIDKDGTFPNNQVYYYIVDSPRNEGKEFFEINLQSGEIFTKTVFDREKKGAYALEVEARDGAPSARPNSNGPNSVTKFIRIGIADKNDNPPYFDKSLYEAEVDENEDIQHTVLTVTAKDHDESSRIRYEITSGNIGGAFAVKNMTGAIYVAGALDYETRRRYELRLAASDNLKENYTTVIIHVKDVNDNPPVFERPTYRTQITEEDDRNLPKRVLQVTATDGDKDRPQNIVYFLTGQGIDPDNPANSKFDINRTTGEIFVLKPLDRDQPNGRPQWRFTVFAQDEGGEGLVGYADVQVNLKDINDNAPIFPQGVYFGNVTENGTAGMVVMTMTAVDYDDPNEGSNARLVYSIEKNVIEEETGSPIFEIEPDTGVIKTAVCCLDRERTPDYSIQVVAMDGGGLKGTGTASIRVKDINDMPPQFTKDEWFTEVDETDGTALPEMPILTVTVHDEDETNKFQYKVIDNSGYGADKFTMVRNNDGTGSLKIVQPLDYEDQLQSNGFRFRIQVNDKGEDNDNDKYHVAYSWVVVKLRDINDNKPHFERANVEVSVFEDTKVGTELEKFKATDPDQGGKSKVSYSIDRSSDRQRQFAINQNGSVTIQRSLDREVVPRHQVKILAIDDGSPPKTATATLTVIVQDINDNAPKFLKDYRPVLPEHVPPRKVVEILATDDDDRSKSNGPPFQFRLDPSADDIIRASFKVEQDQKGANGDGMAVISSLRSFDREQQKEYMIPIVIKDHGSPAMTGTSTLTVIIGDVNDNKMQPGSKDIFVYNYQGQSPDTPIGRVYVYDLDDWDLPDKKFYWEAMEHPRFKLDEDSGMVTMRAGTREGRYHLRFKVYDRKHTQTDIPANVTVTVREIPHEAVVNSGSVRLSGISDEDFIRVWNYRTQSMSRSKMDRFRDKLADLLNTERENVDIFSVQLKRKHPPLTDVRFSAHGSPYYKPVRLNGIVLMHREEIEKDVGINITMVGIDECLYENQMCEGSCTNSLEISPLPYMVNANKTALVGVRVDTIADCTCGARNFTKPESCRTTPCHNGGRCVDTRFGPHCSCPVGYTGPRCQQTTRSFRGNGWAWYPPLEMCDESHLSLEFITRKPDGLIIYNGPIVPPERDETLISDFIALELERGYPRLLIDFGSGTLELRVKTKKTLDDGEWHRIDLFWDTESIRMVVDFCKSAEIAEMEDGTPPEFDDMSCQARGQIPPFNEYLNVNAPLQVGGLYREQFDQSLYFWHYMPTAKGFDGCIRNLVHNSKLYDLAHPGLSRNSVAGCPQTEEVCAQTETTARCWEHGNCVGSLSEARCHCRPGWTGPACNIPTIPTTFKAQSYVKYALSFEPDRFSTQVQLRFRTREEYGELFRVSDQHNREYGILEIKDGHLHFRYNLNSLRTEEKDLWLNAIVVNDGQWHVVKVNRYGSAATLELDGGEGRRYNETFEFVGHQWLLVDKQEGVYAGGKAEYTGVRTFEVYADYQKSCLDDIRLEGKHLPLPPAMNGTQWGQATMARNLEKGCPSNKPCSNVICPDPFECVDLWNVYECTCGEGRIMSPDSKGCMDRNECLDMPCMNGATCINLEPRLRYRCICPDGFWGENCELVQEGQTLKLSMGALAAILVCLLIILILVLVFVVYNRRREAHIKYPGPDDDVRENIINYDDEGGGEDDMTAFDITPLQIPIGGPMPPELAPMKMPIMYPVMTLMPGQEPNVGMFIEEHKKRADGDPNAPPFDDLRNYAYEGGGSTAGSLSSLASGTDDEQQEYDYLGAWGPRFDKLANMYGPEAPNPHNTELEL

No constants are given. Whether binding was seen depends on the method and setting.

Drawing on publication PMC8325961, this text covers binding for one substance.

As to “full-length DN-cadherin (DNfull) (from UniProt O15943)”, the binding result is on record as “no binding”.
